Assay: heat activated image dye transfer to polymeric dye-receiver layer, Status A densitometry, Examples 5-8 (CD-2 developer)
Conditions: Table IV
Experimental: The following eight examples are prepared to examine the ability of materials to effect the transfer of image dye through intervening layers of gelatin binder into a polymeric dye receiver layer and are described by the coating format shown in FIG. 2. The first layer (FIG. 2, layer 14) contains gelatin binder and the material to be tested as a thermal solvent while the upper layer (FIG. 2, layer 16) contains the image generating chemistry comprising a silver chloride emulsion and a dispersion of a dye generating coupler in a gelatin binder. A third, protective overcoat, layer (FIG. 2, layer 15) containing gelatin and hardener is applied over the first two gelatin test layers. Films are exposed through a step tablet, processed in a photographic developer, bleach-fixed, wash, dried at low temperatures. The film thus obtained in referred to as an integral film. In the following examples the film is laminated with unsubbed ESTAR™ and heated by passing through a set of heated rollers to effect transfer of the dye from the gelatin image generating layer to the dye-receiver layer. The image generating layer is removed by protease digestion and warm water wash. These films are referred to as n-pass receiver layers where n is the number of passes through the heated rollers.
Two novel sulfamoyl hydrogen bond donating group containing thermal solvents of our invention (TS-1 and TS-2) for non-aqueous dye diffusion transfer are compared to n-octyl 4-hydroxybenzoate (CS-1) and to a film without additional compounds in the first gelatin layer (FIG. 2 layer 14). [drawing 7]
Thermal Solvent Melt Preparation. To a mixture of 3.90 g of the thermal solvent test compound and 2.40 g of ethyl acetate is added, with stirring, a warm solution consisting of 46.0 g of melted and filtered 7.8% gelatin and 4.3 g of a 10% solution of surfactant-A (Alkanol XC™, DuPont) in 33.4 g of distilled water. This mixture is dispersed by three passes through a Gaulin Dispersion Mill set at a gap of 0.005". […]

CCCCCCCCOC(=O)c1ccc(O)cc1 [CS-1, n-octyl 4-hydroxybenzoate]
Obs. Green Density, Integral (integral film before transfer): 2.088
Obs. Green Density, 1-pass Rec (receiver layer, 1 pass through heated rollers): 0.658
Obs. Green Density, 3-pass Rec. (receiver layer, 3 passes through heated rollers): 0.833
